Assay results from publication PMC4673825, “Active site coupling in Plasmodium falciparum GMP synthetase is triggered by domain rotation” (Nature Communications, 2015).
These are yes or no findings as the source states them, for the method shown.

Target: PfGATase (isolated glutamine amidotransferase domain of PfGMPS) (Plasmodium falciparum) (UniProt Q8IJR9)
Test: SEC; analytical gel filtration, Superdex 200 HR 10/30, 50 mM Tris-HCl pH 7.4, 100 mM KCl; 100 μl of 20 μM protein, each injected individually; both purified

B1: PfGATase (isolated glutamine amidotransferase domain of PfGMPS) (domain or fragment, UniProt Q8IJR9 1-236)
chain: MEGEEYDKILVLNFGSQYFHLIVKRLNNIKIFSETKDYGVELKDIKDMNIKGVILSGGPYSVTEAGSPHLKKEVFEYFLEKKIPIFGICYGMQEIAVQMNGEVKKSKTSEYGCTDVNILRNDNINNITYCRNFGDSSSAMDLYSNYKLMNETCCLFENIKSDITTVWMNHNDEVTKIPENFYLVSSSENCLICSIYNKEYNIYGVQYHPEVYESLDGELMFYNFAYNICKCKKQFD
binding: no binding (tested: 20 μM)
